Laboratory results taken from article PMC6954888.
No constants are given. Whether binding was seen depends on the method and setting. Binding seen in cells or lysates may run through a third protein. Some binding calls cover weakened binding; strength is not graded here. One block for each molecule: values may come before it.

Amino acid sequences for entries named in this document (tags omitted).
UniProt P46937: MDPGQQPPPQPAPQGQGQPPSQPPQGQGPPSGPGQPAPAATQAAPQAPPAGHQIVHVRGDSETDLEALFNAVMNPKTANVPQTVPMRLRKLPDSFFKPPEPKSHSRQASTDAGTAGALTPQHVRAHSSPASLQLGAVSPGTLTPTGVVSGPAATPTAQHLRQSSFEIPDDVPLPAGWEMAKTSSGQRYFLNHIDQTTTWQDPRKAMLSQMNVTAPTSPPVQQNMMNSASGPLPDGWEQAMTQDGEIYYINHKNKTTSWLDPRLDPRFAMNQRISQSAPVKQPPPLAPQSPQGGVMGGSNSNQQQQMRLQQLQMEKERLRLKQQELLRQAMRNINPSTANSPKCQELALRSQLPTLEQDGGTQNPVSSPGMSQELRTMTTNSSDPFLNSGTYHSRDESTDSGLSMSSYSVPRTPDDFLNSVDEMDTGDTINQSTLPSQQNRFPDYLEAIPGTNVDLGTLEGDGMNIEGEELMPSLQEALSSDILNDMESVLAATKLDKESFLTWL

Key:
[1] = molecular target: T1, ubiquitin specific peptidase 47 (USP47) (UniProt Q96K76); test: co-IP; Flag-YAP and Xpress-USP47 co-transfected into HEK293T cells; immunoprecipitation with α-Flag beads or α-Xpress beads, immunoblotting with α-Xpress or α-Flag antibody
T1 sequence: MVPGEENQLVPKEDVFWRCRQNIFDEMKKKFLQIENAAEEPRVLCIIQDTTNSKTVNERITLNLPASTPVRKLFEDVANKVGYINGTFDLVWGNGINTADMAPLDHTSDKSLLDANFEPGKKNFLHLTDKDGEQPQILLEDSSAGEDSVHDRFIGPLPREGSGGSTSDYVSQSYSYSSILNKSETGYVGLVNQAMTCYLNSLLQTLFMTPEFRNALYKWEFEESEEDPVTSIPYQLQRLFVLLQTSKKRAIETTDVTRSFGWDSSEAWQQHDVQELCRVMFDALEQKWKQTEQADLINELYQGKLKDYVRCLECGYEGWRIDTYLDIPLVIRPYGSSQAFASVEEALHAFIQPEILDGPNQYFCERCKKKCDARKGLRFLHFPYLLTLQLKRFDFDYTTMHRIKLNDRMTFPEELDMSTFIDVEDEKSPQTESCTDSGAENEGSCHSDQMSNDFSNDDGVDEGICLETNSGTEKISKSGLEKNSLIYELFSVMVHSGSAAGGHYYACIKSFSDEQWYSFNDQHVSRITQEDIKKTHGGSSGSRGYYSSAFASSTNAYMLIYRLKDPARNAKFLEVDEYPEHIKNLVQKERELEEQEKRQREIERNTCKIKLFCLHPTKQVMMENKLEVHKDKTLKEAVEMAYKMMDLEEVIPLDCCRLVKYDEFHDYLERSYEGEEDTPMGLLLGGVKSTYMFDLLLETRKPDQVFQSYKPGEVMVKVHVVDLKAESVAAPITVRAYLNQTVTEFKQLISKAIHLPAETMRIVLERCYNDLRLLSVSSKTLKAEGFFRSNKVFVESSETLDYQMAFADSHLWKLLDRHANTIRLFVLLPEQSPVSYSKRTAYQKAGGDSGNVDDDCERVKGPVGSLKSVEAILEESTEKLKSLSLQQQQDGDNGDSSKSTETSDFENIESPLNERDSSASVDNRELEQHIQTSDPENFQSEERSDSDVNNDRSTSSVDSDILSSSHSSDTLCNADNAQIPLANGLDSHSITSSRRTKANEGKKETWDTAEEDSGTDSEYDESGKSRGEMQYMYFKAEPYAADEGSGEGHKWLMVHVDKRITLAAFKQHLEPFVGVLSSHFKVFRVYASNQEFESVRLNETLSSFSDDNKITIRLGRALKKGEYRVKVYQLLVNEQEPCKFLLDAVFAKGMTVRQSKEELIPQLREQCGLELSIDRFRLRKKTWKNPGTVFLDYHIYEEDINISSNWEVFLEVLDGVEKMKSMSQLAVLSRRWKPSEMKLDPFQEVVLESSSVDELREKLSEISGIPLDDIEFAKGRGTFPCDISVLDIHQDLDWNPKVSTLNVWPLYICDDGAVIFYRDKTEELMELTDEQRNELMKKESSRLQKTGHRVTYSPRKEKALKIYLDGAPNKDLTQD

[2] = molecular target: Yes-associated protein (YAP) (UniProt P46937); test: as above

binding [1]: binds
Molecule: Yes-associated protein (YAP) (from UniProt P46937 1-504)

binding [2]: binds
B1: ubiquitin specific peptidase 47 (USP47) (enzyme, UniProt Q96K76 1-1375)
chain: T1 sequence
